# Experimental data published in the supplement of paper PMC4635364.
# Where a name gives a salt, the structure may show the parent alone. The list shows a part of the results. Repeats in this data set agree poorly, so a single value says little.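 ReNCell VM, a human fetal ventral-midbrain neural progenitor line, was differentiated without mitogens. Blinded raters scored images stained for doublecortin (early neurons) or tyrosine hydroxylase (dopaminergic neurons) against untreated wells (0 = no change). Scores were averaged across repeats and both raters, and compounds averaging 2 or more were selected as hits for retesting.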
# Columns and labels:
# ReNCell VM [1] = experiment: neuronal differentiation score (DCX+ cell fraction vs untreated, manual image score) (score (-3 to 3)); higher = more neuronal differentiation; conditions: 2 uM, 2 weeks
# ReNCell VM [2] = experiment: dopaminergic neuron differentiation score (TH+ cell fraction vs untreated, manual image score) (score (0 to 3)); higher = more TH+ dopaminergic neuron differentiation; conditions: 2 uM, 4 weeks, BDNF 10 ng/ml + GDNF 10 ng/ml
compound,measurement,setting,value
CN(C)CCOC(=O)COc1ccc(Cl)cc1,neuronal differentiation score,ReNCell VM [1]; library: Spectrum,inactive: 0
same,dopaminergic neuron differentiation score,ReNCell VM [2]; library: Spectrum,inactive: 0
COc1c(O)cccc1O,neuronal differentiation score,ReNCell VM [1]; library: Spectrum,inactive: 0
same,dopaminergic neuron differentiation score,ReNCell VM [2]; library: Spectrum,inactive: 0
"O=C(O)[C@H]1CC[C@@](C(=O)O)(c2ccccc2)c2ccccc21 [1,2,3,4-tetrahydro-1-phenyl-1,4-naphthalenedicarboxylic acid]",neuronal differentiation score,ReNCell VM [1]; library: Natural,inactive: 0
same,dopaminergic neuron differentiation score,ReNCell VM [2]; library: Natural,inactive: 0
CN1Cc2c(C(=O)OC(C)(C)C)ncn2-c2ccsc2C1=O,neuronal differentiation score,ReNCell VM [1]; library: Tocriscreen,inactive: 0
same,dopaminergic neuron differentiation score,ReNCell VM [2]; library: Tocriscreen,inactive: 0
COc1c(O)cc2oc3cc(O)c(CC=C(C)C)c(O)c3c(=O)c2c1CC=C(C)C [alpha-MANGOSTIN],neuronal differentiation score,ReNCell VM [1]; library: Spectrum,inactive: 0
same,dopaminergic neuron differentiation score,ReNCell VM [2]; library: Spectrum,inactive: 0
O=C1N(c2ccccc2)c2ccccc2C1(Cc1ccncc1)Cc1ccncc1 [Linopirdine],neuronal differentiation score,ReNCell VM [1]; library: LOPAC,inactive: 0
same,dopaminergic neuron differentiation score,ReNCell VM [2]; library: LOPAC,inactive: 0
O=C1C(=O)N(Cc2ccc(Cl)c(Cl)c2)c2ccccc21 [Apoptosis Activator 2],neuronal differentiation score,ReNCell VM [1]; library: Tocriscreen,inactive: 0
same,dopaminergic neuron differentiation score,ReNCell VM [2]; library: Tocriscreen,inactive: 0
C[C@@H]1CC[C@H]2[C@](C)(CO)[C@@H](O)CC[C@]2(C)[C@@]12CC[C@@](CO)(CCO)O2,neuronal differentiation score,ReNCell VM [1]; library: Spectrum,inactive: 0
same,dopaminergic neuron differentiation score,ReNCell VM [2]; library: Spectrum,inactive: 0
CN1CCN2c3ccccc3Cc3ccccc3C2C1 (centres undefined),neuronal differentiation score,ReNCell VM [1]; library: Spectrum,inactive: 0
same,dopaminergic neuron differentiation score,ReNCell VM [2]; library: Spectrum,inactive: 0
O=C1c2ccccc2-n2c1nc1ccccc1c2=O [tryptanthrin],neuronal differentiation score,ReNCell VM [1]; library: Natural,active: 3
same,dopaminergic neuron differentiation score,ReNCell VM [2]; library: Natural,inactive: 0
Cc1[nH]ccc2c1[nH]c1cc(=O)ccc12 [Harmol hydrochloride monohydrate],neuronal differentiation score,ReNCell VM [1]; library: Phytochemical,inactive: 0
same,dopaminergic neuron differentiation score,ReNCell VM [2]; library: Phytochemical,inactive: 0
CC(C)(C)NCC(O)COc1cccc2c1CCC(=O)N2 (centres undefined),neuronal differentiation score,ReNCell VM [1]; library: Spectrum,inactive: 0
same,dopaminergic neuron differentiation score,ReNCell VM [2]; library: Spectrum,inactive: 0

# Random excerpt: two entries already listed.
compound,measurement,setting,value
COc1c(O)cccc1O,neuronal differentiation score,ReNCell VM [1]; library: Spectrum,inactive: 0
CC(C)(C)NCC(O)COc1cccc2c1CCC(=O)N2 (centres undefined),neuronal differentiation score,ReNCell VM [1]; library: Spectrum,inactive: 0
